From publication PMC7239452
Results are given in words; binding and its absence hold for the method and conditions named. Binding seen in cells or lysates may run through a third protein. Binding can be weak; no strength is given.

T1: Sec24D (mouse, Min-6 insulinoma cells) (mouse (endogenous in Min-6)) (UniProt Q6NXL1)
T1 sequence: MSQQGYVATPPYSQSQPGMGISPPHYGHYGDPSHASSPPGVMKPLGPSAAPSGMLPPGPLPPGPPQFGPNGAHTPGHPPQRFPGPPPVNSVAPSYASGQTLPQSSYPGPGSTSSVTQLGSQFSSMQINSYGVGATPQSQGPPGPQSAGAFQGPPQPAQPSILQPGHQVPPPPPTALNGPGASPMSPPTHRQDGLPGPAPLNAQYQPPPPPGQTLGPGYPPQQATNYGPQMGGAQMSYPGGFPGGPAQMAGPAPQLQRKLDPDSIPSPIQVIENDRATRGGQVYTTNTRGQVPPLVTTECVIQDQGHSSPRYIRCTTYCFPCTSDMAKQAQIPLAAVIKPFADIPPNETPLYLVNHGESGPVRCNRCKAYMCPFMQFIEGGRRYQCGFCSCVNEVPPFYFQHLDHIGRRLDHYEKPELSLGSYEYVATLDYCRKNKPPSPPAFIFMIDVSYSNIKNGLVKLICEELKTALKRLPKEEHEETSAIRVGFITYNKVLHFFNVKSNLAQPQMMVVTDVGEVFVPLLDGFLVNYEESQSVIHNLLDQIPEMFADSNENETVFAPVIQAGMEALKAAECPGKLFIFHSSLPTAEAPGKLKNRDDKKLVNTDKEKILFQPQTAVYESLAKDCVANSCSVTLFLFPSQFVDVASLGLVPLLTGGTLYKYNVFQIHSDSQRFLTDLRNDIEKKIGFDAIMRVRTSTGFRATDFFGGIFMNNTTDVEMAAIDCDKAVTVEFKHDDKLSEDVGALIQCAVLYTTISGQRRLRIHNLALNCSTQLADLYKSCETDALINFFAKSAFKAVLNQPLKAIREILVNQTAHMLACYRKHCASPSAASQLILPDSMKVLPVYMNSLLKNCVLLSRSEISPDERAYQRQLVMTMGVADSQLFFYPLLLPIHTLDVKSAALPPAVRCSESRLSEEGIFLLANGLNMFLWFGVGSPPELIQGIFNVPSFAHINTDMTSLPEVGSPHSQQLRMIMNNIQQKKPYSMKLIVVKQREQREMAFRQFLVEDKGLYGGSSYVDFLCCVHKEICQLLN


Columns and labels:
[1] = biological target: T1, Sec24D (mouse, Min-6 insulinoma cells) (mouse (endogenous in Min-6)); assay: co-IP; Min-6 lysate, non-denaturing; 50 ug lysate protein, 2 ul primary antibody 1 h, Protein G agarose 2 h at room temperature; precipitated Proinsulin quantified by Mercodia rat/mouse Proinsulin ELISA; controls: no antibody, anti-V5
[2] = biological target: Proinsulin (mouse, Min-6 insulinoma cells) (mouse (endogenous in Min-6)); assay: co-IP; Min-6 cells lysed under non-denaturing conditions (RIPA without SDS or Thermo lysis buffer); 500 ug lysate protein, 10 ul primary antibody 1 h at room temperature, Protein G PLUS agarose 2 h; precipitate read by SDS-PAGE and immunoblot

| Molecule | binding [1] | binding [2] |
| --- | --- | --- |
| Proinsulin (mouse, Min-6 insulinoma cells) | binds | – |
| Sec24D (mouse, Min-6 insulinoma cells) (protein, UniProt Q6NXL1 1-1032) MSQQGYVATPPYSQSQPGMGISPPHYGHYGDPSHASSPPGVMKPLGPSAAPSGMLPPGPLPPGPPQFGPNGAHTPGHPPQRFPGPPPVNSVAPSYASGQTLPQSSYPGPGSTSSVTQLGSQFSSMQINSYGVGATPQSQGPPGPQSAGAFQGPPQPAQPSILQPGHQVPPPPPTALNGPGASPMSPPTHRQDGLPGPAPLNAQYQPPPPPGQTLGPGYPPQQATNYGPQMGGAQMSYPGGFPGGPAQMAGPAPQLQRKLDPDSIPSPIQVIENDRATRGGQVYTTNTRGQVPPLVTTECVIQDQGHSSPRYIRCTTYCFPCTSDMAKQAQIPLAAVIKPFADIPPNETPLYLVNHGESGPVRCNRCKAYMCPFMQFIEGGRRYQCGFCSCVNEVPPFYFQHLDHIGRRLDHYEKPELSLGSYEYVATLDYCRKNKPPSPPAFIFMIDVSYSNIKNGLVKLICEELKTALKRLPKEEHEETSAIRVGFITYNKVLHFFNVKSNLAQPQMMVVTDVGEVFVPLLDGFLVNYEESQSVIHNLLDQIPEMFADSNENETVFAPVIQAGMEALKAAECPGKLFIFHSSLPTAEAPGKLKNRDDKKLVNTDKEKILFQPQTAVYESLAKDCVANSCSVTLFLFPSQFVDVASLGLVPLLTGGTLYKYNVFQIHSDSQRFLTDLRNDIEKKIGFDAIMRVRTSTGFRATDFFGGIFMNNTTDVEMAAIDCDKAVTVEFKHDDKLSEDVGALIQCAVLYTTISGQRRLRIHNLALNCSTQLADLYKSCETDALINFFAKSAFKAVLNQPLKAIREILVNQTAHMLACYRKHCASPSAASQLILPDSMKVLPVYMNSLLKNCVLLSRSEISPDERAYQRQLVMTMGVADSQLFFYPLLLPIHTLDVKSAALPPAVRCSESRLSEEGIFLLANGLNMFLWFGVGSPPELIQGIFNVPSFAHINTDMTSLPEVGSPHSQQLRMIMNNIQQKKPYSMKLIVVKQREQREMAFRQFLVEDKGLYGGSSYVDFLCCVHKEICQLLN | – | binds |
